Test results: US20240343760A1, “PEPTIDES FOR CELL-TYPE SPECIFIC TARGETING OF THE RETINA” (Oregon State University, priority 2021, published 2024)
These are yes or no findings as the source states them, for the method shown. Some binding calls cover weakened binding; strength is not graded here.

Molecular target: streptavidin (UniProt P22629)
Assay: phage display biopanning of the Ph.D.-7 M13 library against streptavidin, three rounds, Sanger sequencing of clones

For NLLSHPQ [NLLSHPQ (SEQ ID No. 51), heptamer peptide displayed on M13 bacteriophage (Ph.D.-7 library clone)], the binding was “binds”.
